Entries after “also recorded” stand apart in the source; their conditions may differ. Part of at least one peptide drawing is inferred or uncertain, most often the ends. Some entries share one result that the patent states for a list of compounds. Square brackets hold non-standard residues; d marks the D form. Peptide text beside a SMILES is read from it. Sar = CNCC(=O)O
Legend:
Pseudomonas aeruginosa = assay: Microdilution MIC assay, Pseudomonas aeruginosa; assay type: cell-based; settings: overnight 37° C., OD600
[1] = system: C1q binding to Raji cells; assay: Labeled C1q binding to Raji cells (confocal microscopy); assay type: cell-based; settings: 1.45 or 2.9 mg/ml peptide preincubated with C1q
C3 deposition on HuRBCs = assay: In vitro flow cytometry of C3 deposition on HuRBCs in rat serum; assay type: cell-based; settings: rat serum treated with 12 mg/ml (4 mMol) peptide vs untreated serum, 5 min
Gardnerella = Gardnerella growth inhibition; assay type: cell-based
Procedure: The plates were then incubated at 37° C. overnight and then the plates were read on a spectrophotometer at an absorbance of OD600 nm to determine the turbidity of the solution. Decreased turbidity is indicative of inhibition of bacterial growth.
Complement activation was assayed by measuring the production of C5a using ELISA methodology. […] The associated inflammation causes the symptoms of bacterial vaginosis and increases the risk of HIV-transmission by disrupting normal barrier defenses in the vagina.

Amino acid sequences for entries named in this document (tags omitted). Residues count along the entry.
UniProt P02745, 23-245: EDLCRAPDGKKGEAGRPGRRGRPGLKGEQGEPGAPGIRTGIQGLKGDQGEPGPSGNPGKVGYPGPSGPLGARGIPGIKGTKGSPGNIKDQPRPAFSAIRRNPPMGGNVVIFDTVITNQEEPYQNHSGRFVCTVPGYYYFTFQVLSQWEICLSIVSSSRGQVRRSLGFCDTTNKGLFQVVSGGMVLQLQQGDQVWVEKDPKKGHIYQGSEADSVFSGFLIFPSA
UniProt P02746, 28-253: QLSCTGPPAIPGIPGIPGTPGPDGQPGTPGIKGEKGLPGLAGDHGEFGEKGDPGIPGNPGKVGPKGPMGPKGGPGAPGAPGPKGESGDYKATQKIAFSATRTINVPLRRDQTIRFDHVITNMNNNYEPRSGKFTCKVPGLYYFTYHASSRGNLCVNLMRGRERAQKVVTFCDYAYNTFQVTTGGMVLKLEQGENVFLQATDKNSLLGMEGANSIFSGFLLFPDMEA
UniProt P02747, 29-245: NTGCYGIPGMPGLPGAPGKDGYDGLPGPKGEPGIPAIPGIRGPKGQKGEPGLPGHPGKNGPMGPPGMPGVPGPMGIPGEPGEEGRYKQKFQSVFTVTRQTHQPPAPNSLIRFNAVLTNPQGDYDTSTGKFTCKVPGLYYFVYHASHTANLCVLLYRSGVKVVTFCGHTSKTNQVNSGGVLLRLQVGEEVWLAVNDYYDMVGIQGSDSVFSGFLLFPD

Staphylococcus aureus = assay: Microdilution MIC assay, Staphylococcus aureus; assay type: cell-based; settings: overnight 37° C., OD600
Neisseria gonorrhoeae = Neisseria gonorrhoeae growth in liquid culture and colony counts; assay type: cell-based
[2] = system: L. acidophilus and L. leichmannii; assay: Lactobacillus growth; assay type: cell-based
[3] = system: classical complement activation; assay: Complement-mediated hemolysis of type B erythrocytes by type O donor plasma (ATR in vitro model); assay type: biochemical, human; settings: Donor O+ #1 plasma with B+ erythrocytes, 37° C. 1 hour; 0.747 without peptide
Procedure: Plasma from both donors were diluted with GVBS++ (veronal buffered saline with 0.1% gelatin, 0.15 mM CaCl2 and 1 mM MgCl2) and incubated with purified erythrocytes from a B+ donor at 37° C. for 1 hour. Free hemoglobin was measured by spectrophotometer at 412 nm.

Myeloperoxidase (MPO) [4] = biological target: T1, Myeloperoxidase (MPO) (Rattus norvegicus, UniProt A0A0G2K1A2); assay: MPO activity in brain lysate of HIE rats (TMB); assay type: biochemical
T1 construct: Supernatants from rat brain lysate that underwent HIE was incubated in the presence or absence of 20 mg/ml PIC1; from tissue; host or cells: rat brain lysate (HIE model)
T1 sequence (A0A0G2K1A2 23-719): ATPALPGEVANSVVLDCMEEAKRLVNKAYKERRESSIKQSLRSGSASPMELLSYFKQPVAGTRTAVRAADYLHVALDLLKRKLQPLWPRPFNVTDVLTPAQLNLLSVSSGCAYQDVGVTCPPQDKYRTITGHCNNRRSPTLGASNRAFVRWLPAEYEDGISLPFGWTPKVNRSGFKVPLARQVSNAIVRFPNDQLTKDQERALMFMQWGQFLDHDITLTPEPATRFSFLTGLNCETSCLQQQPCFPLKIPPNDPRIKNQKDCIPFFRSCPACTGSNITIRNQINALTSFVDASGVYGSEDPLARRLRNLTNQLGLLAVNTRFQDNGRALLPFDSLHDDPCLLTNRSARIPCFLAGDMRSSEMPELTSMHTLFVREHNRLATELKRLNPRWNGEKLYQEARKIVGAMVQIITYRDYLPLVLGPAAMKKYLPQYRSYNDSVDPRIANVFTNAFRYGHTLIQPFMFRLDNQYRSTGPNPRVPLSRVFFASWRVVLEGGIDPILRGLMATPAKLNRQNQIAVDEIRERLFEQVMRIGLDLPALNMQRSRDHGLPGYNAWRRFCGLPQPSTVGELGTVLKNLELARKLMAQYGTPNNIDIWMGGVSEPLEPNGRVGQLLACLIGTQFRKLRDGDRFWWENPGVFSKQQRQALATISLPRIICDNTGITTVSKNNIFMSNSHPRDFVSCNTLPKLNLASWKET

[5] = system: hypoxic ischemic brain injury; assay type: in vivo, Wistar rat
[6] = system: C5a generation (classical/lectin complement pathway); assay: C5a generation in CF sol by dead Pseudomonas aeruginosa (C5a ELISA); assay type: biochemical, human; settings: equal volume of 50 mg/ml peptide, heat-killed Pseudomonas aeruginosa (P=0.001)
Klebsiella pneumonia = assay: Microdilution MIC assay, Klebsiella pneumonia; assay type: cell-based; settings: overnight 37° C., OD600
complement activation = settings: rats, intravascular administration, within 30 seconds; cited from earlier work
Myeloperoxidase (MPO) [7] = biological target: T2, Myeloperoxidase (MPO) (Homo sapiens, UniProt P05164); assay: MPO activity in lysates of purified human neutrophils (TMB); assay type: biochemical; settings: increasing amounts
T2 construct: MPO activity present in the lysates of purified human neutrophils; endogenous in cells; host or cells: purified human neutrophils (PMN), lysate
T2 sequence (P05164 49-745): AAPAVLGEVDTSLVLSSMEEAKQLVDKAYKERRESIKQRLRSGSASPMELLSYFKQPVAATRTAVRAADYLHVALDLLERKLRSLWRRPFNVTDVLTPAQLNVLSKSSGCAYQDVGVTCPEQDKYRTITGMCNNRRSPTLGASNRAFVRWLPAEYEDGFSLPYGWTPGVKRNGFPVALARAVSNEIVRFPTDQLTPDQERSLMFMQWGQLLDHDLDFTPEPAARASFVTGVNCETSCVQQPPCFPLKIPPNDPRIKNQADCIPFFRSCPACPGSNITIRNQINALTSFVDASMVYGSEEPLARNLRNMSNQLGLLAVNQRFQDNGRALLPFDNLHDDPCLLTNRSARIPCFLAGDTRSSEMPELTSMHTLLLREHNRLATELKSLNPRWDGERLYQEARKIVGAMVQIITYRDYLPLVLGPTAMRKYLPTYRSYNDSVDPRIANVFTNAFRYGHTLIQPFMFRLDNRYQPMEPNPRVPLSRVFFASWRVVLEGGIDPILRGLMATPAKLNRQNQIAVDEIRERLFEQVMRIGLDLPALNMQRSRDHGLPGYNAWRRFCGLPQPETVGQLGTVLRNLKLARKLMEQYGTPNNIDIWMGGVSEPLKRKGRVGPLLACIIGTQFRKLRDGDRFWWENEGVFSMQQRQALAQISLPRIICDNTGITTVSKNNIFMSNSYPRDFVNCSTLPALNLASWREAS

HSV-1 = assay: HSV-1-GFP infection of CV-1 cells, flow cytometry; assay type: cell-based; settings: 16 hours
Procedure: CV-1 cells were infected with HSV-1-GFP for 16 hours. Post-infection, CV-1 cells were detected by flow cytometry (FIG. 33). […] Acyclovir (the standard of care for severe HSV-1 infections) was also added as a control at the same molar ratio.

[8] = system: complement-mediated hemolysis of transfused huRBCs; assay: Rat AIHTR model, xenotransfusion of human RBCs; assay type: in vivo, Wistar rat
C1q = C1q (Homo sapiens, UniProt P02745+P02746+P02747); assay: Peptide binding to plate-coated C1q, calreticulin and BSA; settings: not to calreticulin or BSA

CC[C@H](C)[C@H](N)C(=O)N[C@@H](C)C(=O)N[C@@H](CC(C)C)C(=O)N(C)CC(=O)N[C@@H](CC(C)C)C(=O)N[C@@H](CCC(=O)O)C(=O)N1CCC[C@H]1C(=O)N[C@H](C(=O)N[C@@H](CS)C(=O)N[C@@H](CS)C(=O)N[C@@H](CCC(N)=O)C(=O)N[C@@H](CCC(=O)O)C(=O)N[C@@H](CCCNC(=N)N)C(=O)N[C@@H](C)C(=O)N[C@@H](C)C(=O)O)[C@@H](C)CC [PA-I4Sar] (H-IAL[Sar]LEPICCQERAA-OH)
Concentration inhibiting Pseudomonas aeruginosa (Pseudomonas aeruginosa): ≥ 6 mg/mL

CC[C@H](C)[C@H](N)C(=O)N[C@@H](C)C(=O)N[C@@H](CC(C)C)C(=O)N[C@H](C(=O)N[C@@H](CC(C)C)C(=O)N[C@@H](CCC(=O)O)C(=O)N1CCC[C@H]1C(=O)N[C@H](C(=O)N[C@@H](CS)C(=O)N[C@@H](CS)C(=O)N[C@@H](CCC(N)=O)C(=O)N[C@@H](CCC(=O)O)C(=O)N[C@@H](CCCNC(=N)N)C(=O)N[C@@H](C)C(=O)N[C@@H](C)C(=O)NCCOCCOCCOCCOCCOCCOCCOCCOCCOCCOCCOCCOCCOCCOCCOCCOCCOCCOCCOCCOCCOCCOCCOCCOCCC(=O)O)[C@@H](C)CC)[C@@H](C)CC [PA-dPEG24]
Inhibition of C1q binding to Raji cells [1]: blocked binding of C1q to Raji cells; also recorded: decreased significantly
Reduction in C3 deposition on HuRBCs (Q2/Q2+Q3) (C3 deposition on HuRBCs): > 1.5 fold
Inhibition of Gardnerella growth (Gardnerella): inhibited the growth
Concentration inhibiting Staphylococcus aureus growth (Staphylococcus aureus): above 1 mM
Concentration inhibiting Pseudomonas aeruginosa (Pseudomonas aeruginosa): ≥ 13 mg/mL
Neisseria gonorrhoeae growth in liquid culture (Neisseria gonorrhoeae; 0-30 mg/ml): dose-dependent inhibition
Neisseria gonorrhoeae colony counts (Neisseria gonorrhoeae; 30 mg/ml): substantial reduction
Growth of Lactobacillus [2]: promote growth of Lactobacillus in a dose dependent manner
Hemolysis in presence of PA-dPEG24 (Abs 412 nm) [3]: 0.008 Abs 412 nm
MPO enzymatic activity in brain lysate of HIE rats (Myeloperoxidase (MPO) [4]): able to block MPO enzymatic activity
Negative geotaxis test ([5]; 1-7 days after HIE, vs normothermia HIE animals): performed significantly better
Brain histology ([5]; five days after HIE): Neuronal destruction was reduced
Reduction in infarction ([5]; rat, in vivo): 40%
C1q deposition in the brain ([5]; vs untreated HIE controls at 4, 12, 24 hours after brain injury): significantly less C1q deposition
C5a generation in CF sol [6]: decreased C5a generation by Pseudomonas aeruginosa
Concentration inhibiting Klebsiella pneumonia (Klebsiella pneumonia): > 3 mg/mL
Systemic inhibition of serum complement levels (complement activation): greater than 90%
MPO activity in lysates of purified human neutrophils (PMN) (Myeloperoxidase (MPO) [7]): dose-dependently inhibits MPO activity
Inhibition of HSV-1 replication (HSV-1; CV-1 cells, HSV-1-GFP): inhibited viral infection in a dose dependent manner
Concentration with no detection of GFP+ cells (HSV-1; added to CV-1 cells before infection): 4 to 5 mM
Hemolysis as free hemoglobin, prophylaxis and rescue ([8]; 40 mg given 30 seconds before or after transfusion, vs NS at 5 and 20 minutes (P≤0.005)): significantly reduced
Bilirubin circulating at 120 minutes ([8]; 40 mg prior to transfusion vs NS (P=0.0015)): significantly reduced the amount of bilirubin
Gross hematuria / urine appearance ([8]; 40 mg prophylaxis, monitored 6 hours post-transfusion): appeared normal
Kidney histopathology ([8]; 40 mg prophylaxis, necropsy 6 hours post-transfusion): slight edema, but otherwise healthy kidney architecture
Decrease in C3-opsonized human RBCs compared with IVIG ([8]; 40 mg/animal prophylaxis, 30 seconds after transfusion): 3.6 fold
Increase in total surviving human RBCs compared with IVIG ([8]; 40 mg/animal prophylaxis, 20 minutes): 1.6 fold
Survival of transfused huRBCs (flow cytometry, glycophorin A) ([8]; 20 or 40 mg doses, prophylaxis, up to 20 minutes): survival of transfused cells comparable to that observed in the CVF treated animals
Innocent bystander attack of non-glycophorin A RBCs ([8]; prophylactic administration, all observed time points, vs NS): decreased innocent bystander attack
Circulating HuRBCs (Human - No C3) at 30 seconds ([8]; prophylactic treatment, vs NS or CVF): dramatic increase in the numbers of circulating HuRBCs
C3 deposition on circulating HuRBCs ([8]; prophylaxis and treatment, 5 and 20 minutes after transfusion, vs NS): decreased C3 deposition
Free hemoglobin in plasma ([8]; prophylaxis, 40 mg PA-dPEG24 vs NS at 5 and 20 minutes (P≤0.05), CVF 130 μg i.p. 24 hours before): significant reduction of free hemoglobin

CC[C@H](C)[C@H](N)C(=O)N[C@@H](C)C(=O)N[C@@H](CC(C)C)C(=O)N[C@H](C(=O)N(C)CC(=O)N[C@@H](CCC(=O)O)C(=O)N1CCC[C@H]1C(=O)N[C@H](C(=O)N[C@@H](CS)C(=O)N[C@@H](CS)C(=O)N[C@@H](CCC(N)=O)C(=O)N[C@@H](CCC(=O)O)C(=O)N[C@@H](CCCNC(=N)N)C(=O)N[C@@H](C)C(=O)N[C@@H](C)C(=O)O)[C@@H](C)CC)[C@@H](C)CC [PA-L5Sar] (H-IALI[Sar]EPICCQERAA-OH)
Concentration inhibiting Pseudomonas aeruginosa (Pseudomonas aeruginosa): ≥ 6 mg/mL

CC[C@H](C)[C@H](N)C(=O)N[C@@H](C)C(=O)N(C)CC(=O)N[C@H](C(=O)N[C@@H](CC(C)C)C(=O)N[C@@H](CCC(=O)O)C(=O)N1CCC[C@H]1C(=O)N[C@H](C(=O)N[C@@H](CS)C(=O)N[C@@H](CS)C(=O)N[C@@H](CCC(N)=O)C(=O)N[C@@H](CCC(=O)O)C(=O)N[C@@H](CCCNC(=N)N)C(=O)N[C@@H](C)C(=O)N[C@@H](C)C(=O)O)[C@@H](C)CC)[C@@H](C)CC [PA-L3Sar] (H-IA[Sar]ILEPICCQERAA-OH)
Concentration inhibiting Pseudomonas aeruginosa (Pseudomonas aeruginosa): ≥ 6 mg/mL

CC[C@H](C)[C@H](N)C(=O)N[C@@H](C)C(=O)N[C@@H](CC(C)C)C(=O)N[C@H](C(=O)N[C@@H](CC(C)C)C(=O)N[C@@H](CCC(=O)O)C(=O)N1CCC[C@H]1C(=O)N[C@H](C(=O)N[C@@H](CS)C(=O)N[C@@H](CS)C(=O)N[C@@H](CCC(N)=O)C(=O)N[C@@H](CCC(=O)O)C(=O)N[C@@H](CCCNC(=N)N)C(=O)N[C@@H](C)C(=O)N[C@@H](C)C(=O)O)[C@@H](C)CC)[C@@H](C)CC [PA]
Binding to C1q (C1q): bound specifically to C1q
